Assay results taken from PubChem BioAssay AID504444 (National Center for Advancing Translational Sciences (NCATS), 2011).
Out of some 360,000 compounds screened, about 7,500 (2.1%) were called active. Inconclusive means that the source gave no clear call. Such entries were picked first, then a sample of the others. Calls follow the shape of the dose curve; as a rule, active = well fitted inhibition curve with a large enough effect; inconclusive = small, poorly fitted or top-dose-only effect, or effect the other way; inactive = flat fitted curve, though single readings scatter. A potency beside an inconclusive call is a rough fit, not a confirmed value.

Experiment: Nrf2 qHTS screen for inhibitors; also: nearly all actives have a fitted effect of over 60% in size
Settings: A549 ARE-Fluc reporter, luciferase luminescence, 18-24 h; activity change, negative = inhibition: at 46 µM (top of the series)
How it was run: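 Reporter: ARE-Fluc in A549. Exposure: 18-24 h, 37 °C, 5% CO2, 5% FBS OPTI-MEM. Readouts: fluorescent cytotoxicity (CellTiter-Fluor), then luminescent Nrf2 signal after BugLite.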
% is scaled to controls: 0 for no effect and ±100 for the full control effect; potency is read from the fitted curve at half-maximal effect.

Compound | Potency | activity change, negative = inhibition
COc1ccc(C)cc1N(C)C(=O)c1c(C)oc2ncnc(N3CCOCC3)c12 | inconclusive: 8.2 µM [activator, partial curve, poor fit] | –
O=C(CCCn1c(=S)[nH]c2cc3c(cc2c1=O)OCO3)N1CCN(c2ncccn2)CC1 | inconclusive: 1.64 µM [falling, partial curve, poor fit] | –
CCCCN1CCc2c([nH]c3ccc(C)cc23)C1=O | inconclusive: 6.51 µM [activator, partial curve] | –
Cc1nn(C)c(C)c1S(=O)(=O)N1CCCC(C(=O)N2CCN(c3ccc(Cl)cc3)CC2)C1 (stereo not drawn) | inconclusive: 23.1 µM [falling, single point] | –
COc1ccc(C2C3C=CCC(c4ccccc4)C3C(=O)N2Cc2ccccc2)cc1Cl (stereo not drawn) | active: 20.6 µM | –
c1nc2sc3c(c2c2nnnn12)CCCC3 | inconclusive: 8.2 µM [falling, partial curve, poor fit] | –
Cc1nc(NC(=O)CN(C)S(=O)(=O)c2ccc(Br)cc2)sc1C | – | inactive: -0.781%
CCN(Cc1ccccc1)S(=O)(=O)c1c(C)n(C)c(=O)n(C)c1=O | – | inactive: 16.2%
COc1ccc(OCCCSc2ncccn2)cc1 | inconclusive: 11.6 µM [activator, partial curve, poor fit] | –
CCCCNC(=S)N/N=C/C1=CCC2CC1C2(C)C (stereo not drawn) | inconclusive: 23.1 µM [falling, single point] | –
Cc1cccc(OCc2nc3ccccc3c(=O)n2N)c1 | inconclusive: 9.2 µM [activator, partial curve] | –
CN1CCN(C(=O)C2(NC(=O)NCc3ccccc3)CCCCC2)CC1 | – | inactive: 4.62%
NC(=O)CC(NC(=O)c1ccccc1)c1ccc(N2CCC(Br)CC2)c([N+](=O)[O-])c1 (stereo not drawn) | inconclusive: 16.4 µM [falling, partial curve] | –
C[C@H](CO)N1C[C@H](C)[C@H](CN(C)Cc2ccccc2)Oc2c(NC(=O)Nc3ccc(F)cc3)cccc2C1=O | inconclusive: 25.9 µM [falling, single point] | –
O=C(CSc1ccccn1)NCc1ccc2c(c1)OCO2 | inconclusive: 9.2 µM [activator, partial curve, poor fit] | –
Cc1ccc(C(=O)N(Cc2ccc(N(C)C)cc2)Cc2ccco2)cc1 | inconclusive: 25.9 µM [falling, single point] | –
COCC(C)n1c(SCC(=O)N2CC(=O)Nc3ccccc32)nc2ccccc2c1=O (stereo not drawn) | inconclusive: 6.51 µM [falling, full curve, poor fit] | –
O=C(Nc1ccc([N+](=O)[O-])cc1)Nc1ccon1 | – | inactive: 2%

One compound at a time, as listed above:
COc1ccc(OCCCSc2ncccn2)cc1 reads Potency: inconclusive: 11.6 µM [activator, partial curve, poor fit]
Cc1cccc(OCc2nc3ccccc3c(=O)n2N)c1 reads Potency: inconclusive: 9.2 µM [activator, partial curve]
